Literature values in US10941174B2, “Non-caloric sweetener” (Conagen Inc., priority 2014, dated 2021).
Some entries share one result that the patent states for a list of compounds.

Conditions: background statement; cited from earlier work

SMILES	times sweeter than sucrose
C=C1C[C@@]23CC[C@H]4[C@@](C)(CCC[C@@]4(C)C(=O)O[C@@H]4O[C@H](CO)[C@@H](O)[C@H](O)[C@H]4O)[C@@H]2CC[C@]1(O[C@@H]1O[C@H](CO)[C@@H](O)[C@H](O[C@@H]2O[C@H](CO)[C@@H](O)[C@H](O)[C@H]2O)[C@H]1O[C@@H]1O[C@H](CO)[C@@H](O)[C@H](O)[C@H]1O)C3 [Rebaudioside A]	250-450 times
C=C1C[C@@]23CCC4[C@](C)(C(=O)OC5OC(CO)C(O)C(O)C5OC5OC(CO)C(O)C(O)C5O)CCC[C@@]4(C)[C@@H]2CCC1(OC1OC(CO)C(O)C(O)C1OC1OC(CO)C(O)C(O)C1O)C3 (some centres unmarked) [rebaudioside E, Rebaudioside E]	250-450 times
